# Source: paper PMC12533200
# The chains behind the UniProt entries cited, without tags or fusion partners.
# UniProt A5YKK6: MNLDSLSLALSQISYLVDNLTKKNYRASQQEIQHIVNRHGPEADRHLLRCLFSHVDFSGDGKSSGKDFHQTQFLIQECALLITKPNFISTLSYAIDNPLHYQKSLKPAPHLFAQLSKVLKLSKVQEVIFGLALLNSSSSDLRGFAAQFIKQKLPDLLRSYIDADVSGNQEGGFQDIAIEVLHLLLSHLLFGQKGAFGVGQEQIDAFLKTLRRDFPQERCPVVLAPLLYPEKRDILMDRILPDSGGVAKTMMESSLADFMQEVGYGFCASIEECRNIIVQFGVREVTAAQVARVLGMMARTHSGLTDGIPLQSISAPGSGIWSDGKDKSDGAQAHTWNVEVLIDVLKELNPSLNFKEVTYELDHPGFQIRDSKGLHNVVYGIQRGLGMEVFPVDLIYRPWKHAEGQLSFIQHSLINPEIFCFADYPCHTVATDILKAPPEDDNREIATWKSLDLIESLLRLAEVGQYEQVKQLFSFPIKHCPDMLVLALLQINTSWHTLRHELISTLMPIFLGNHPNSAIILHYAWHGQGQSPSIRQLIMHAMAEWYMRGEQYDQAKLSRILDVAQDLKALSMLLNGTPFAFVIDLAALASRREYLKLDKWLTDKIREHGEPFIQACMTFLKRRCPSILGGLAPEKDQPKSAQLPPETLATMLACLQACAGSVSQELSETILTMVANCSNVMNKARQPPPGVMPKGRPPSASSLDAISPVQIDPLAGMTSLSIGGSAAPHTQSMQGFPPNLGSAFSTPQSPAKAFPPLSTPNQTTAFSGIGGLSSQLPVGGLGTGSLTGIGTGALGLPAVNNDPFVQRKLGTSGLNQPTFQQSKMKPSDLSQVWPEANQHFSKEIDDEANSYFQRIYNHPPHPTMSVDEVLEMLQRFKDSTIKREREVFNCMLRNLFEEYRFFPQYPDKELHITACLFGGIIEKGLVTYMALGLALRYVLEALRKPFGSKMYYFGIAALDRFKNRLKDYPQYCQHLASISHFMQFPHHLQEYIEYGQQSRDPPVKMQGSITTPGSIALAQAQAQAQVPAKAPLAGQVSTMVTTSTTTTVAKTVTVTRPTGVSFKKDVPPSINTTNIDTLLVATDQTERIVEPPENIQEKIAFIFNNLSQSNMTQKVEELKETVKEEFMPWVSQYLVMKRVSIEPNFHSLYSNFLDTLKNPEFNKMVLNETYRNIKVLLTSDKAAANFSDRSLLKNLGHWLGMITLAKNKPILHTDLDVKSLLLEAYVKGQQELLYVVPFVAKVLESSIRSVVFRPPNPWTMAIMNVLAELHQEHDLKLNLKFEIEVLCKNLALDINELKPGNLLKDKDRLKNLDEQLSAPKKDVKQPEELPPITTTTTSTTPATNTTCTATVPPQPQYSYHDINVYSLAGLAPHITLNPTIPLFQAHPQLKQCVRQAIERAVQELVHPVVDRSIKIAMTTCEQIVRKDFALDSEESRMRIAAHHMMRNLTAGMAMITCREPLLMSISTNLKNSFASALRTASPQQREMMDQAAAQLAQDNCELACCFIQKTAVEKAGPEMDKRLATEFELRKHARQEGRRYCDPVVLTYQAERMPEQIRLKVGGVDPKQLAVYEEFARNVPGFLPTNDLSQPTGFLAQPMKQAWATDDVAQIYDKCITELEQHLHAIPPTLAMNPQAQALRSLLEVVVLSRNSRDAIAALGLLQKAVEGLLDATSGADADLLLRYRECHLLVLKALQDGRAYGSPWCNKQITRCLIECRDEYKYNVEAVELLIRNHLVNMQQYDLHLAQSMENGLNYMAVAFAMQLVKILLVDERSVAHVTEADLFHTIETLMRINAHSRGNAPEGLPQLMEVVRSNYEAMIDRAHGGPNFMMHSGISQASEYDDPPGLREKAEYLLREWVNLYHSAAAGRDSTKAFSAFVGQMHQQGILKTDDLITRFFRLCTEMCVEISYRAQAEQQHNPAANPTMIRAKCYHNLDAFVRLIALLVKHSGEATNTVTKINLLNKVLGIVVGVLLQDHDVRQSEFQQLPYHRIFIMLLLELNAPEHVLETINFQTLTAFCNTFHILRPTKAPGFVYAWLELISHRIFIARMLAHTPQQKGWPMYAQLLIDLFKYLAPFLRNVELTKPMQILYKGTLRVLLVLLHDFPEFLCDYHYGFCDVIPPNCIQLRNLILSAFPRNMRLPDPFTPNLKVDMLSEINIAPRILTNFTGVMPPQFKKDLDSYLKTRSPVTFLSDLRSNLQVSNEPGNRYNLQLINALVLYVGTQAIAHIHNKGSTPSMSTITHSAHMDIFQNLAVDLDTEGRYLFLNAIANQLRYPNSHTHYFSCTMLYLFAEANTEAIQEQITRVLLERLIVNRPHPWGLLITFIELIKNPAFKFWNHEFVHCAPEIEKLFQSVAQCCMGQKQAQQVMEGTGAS
# No constants are given. Whether binding was seen depends on the method and setting. In cells and extracts the contact can be indirect. Here binding means that the protein was enriched with, or labelled near, the bait; the list need not be complete.
# Biological target: T1, Lethal(2) giant larvae protein homolog 2 (LLGL2), endogenous (human (endogenous in SW620 and RKO)) (UniProt Q6P1M3)
# T1 sequence: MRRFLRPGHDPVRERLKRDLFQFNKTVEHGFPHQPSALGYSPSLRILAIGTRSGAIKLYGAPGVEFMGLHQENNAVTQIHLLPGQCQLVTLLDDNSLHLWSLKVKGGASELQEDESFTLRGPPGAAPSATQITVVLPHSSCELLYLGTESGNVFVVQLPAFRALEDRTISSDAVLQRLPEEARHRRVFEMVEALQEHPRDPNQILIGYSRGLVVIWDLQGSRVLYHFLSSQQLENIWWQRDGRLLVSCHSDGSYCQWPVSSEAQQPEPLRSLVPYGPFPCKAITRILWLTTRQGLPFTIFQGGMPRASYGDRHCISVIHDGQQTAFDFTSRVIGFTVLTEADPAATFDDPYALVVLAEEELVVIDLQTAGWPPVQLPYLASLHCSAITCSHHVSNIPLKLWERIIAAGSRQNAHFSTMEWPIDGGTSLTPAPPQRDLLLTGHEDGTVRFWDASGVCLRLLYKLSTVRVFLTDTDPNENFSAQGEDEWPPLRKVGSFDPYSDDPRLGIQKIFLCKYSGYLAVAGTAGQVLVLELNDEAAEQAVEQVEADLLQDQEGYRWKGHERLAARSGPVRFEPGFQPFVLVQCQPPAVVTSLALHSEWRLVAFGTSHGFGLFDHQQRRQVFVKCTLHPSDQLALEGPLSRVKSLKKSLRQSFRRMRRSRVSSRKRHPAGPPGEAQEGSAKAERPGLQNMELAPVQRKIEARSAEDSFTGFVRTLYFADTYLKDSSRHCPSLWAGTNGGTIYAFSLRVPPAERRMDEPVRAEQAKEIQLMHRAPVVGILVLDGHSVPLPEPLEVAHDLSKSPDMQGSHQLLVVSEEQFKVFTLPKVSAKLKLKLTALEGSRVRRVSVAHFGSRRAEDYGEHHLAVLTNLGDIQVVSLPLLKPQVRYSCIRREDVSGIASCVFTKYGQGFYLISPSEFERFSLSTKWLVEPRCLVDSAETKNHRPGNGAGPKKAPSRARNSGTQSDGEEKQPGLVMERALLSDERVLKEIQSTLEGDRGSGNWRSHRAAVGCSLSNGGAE
# Test: affinity purification with mass spectrometry; shotgun mass spectrometry of proteins interacting with LLGL2; bait, cells and conditions not told
substance,measurement,value
"CCR4‐NOT transcription complex subunit 1 (CNOT1), endogenous (from UniProt A5YKK6 1-2376)",binding,binds
